Data reported in paper PMC12071843.

By UniProt entry, the sequences of proteins in these tests, tags left out. Where a name states a change or a piece, a line headed by the entry shows the natural chain unless it says otherwise.
UniProt P08254: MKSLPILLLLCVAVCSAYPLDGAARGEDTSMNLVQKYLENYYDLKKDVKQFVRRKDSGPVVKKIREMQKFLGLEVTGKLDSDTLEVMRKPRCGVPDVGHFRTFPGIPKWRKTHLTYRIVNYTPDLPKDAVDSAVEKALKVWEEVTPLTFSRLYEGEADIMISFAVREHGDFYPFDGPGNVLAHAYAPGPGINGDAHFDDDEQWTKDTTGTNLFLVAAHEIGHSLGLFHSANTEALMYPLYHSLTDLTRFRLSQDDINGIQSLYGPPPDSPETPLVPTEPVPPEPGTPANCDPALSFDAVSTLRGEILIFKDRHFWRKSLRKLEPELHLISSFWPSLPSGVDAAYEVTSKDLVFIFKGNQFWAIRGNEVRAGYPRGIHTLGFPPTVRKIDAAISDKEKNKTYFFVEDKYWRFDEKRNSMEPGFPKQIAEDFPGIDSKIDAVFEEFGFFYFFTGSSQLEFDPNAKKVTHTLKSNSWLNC

What follows are binders tested against Matrix metalloproteinase 3 (human (endogenous in OVCAR3CIS)) (UniProt P08254) (assay: affinity purification with mass spectrometry; extracellular MMP3: supernatants of serum-free OVCAR3CIS cells, untreated or cisplatin-treated, pre-cleared on protein A/G magnetic beads, anti-MMP3 antibody (Abcam) 10 ug/200 ug protein at 4 °C overnight, protein A/G magnetic beads (Pierce MS-compatible Magnetic IP Kit), eluate by LC-MS/MS).

| binding | Binder |
| --- | --- |
| binds | Uncharacterized protein KIAA0232 (protein, UniProt Q92628 1-1395) MYPICTVVVDGLPSESSSSSYPGPVSVSEMSLLHALGPVQTWLGQELEKCGIDAMIYTRYVLSLLLHDSYDYDLQEQENDIFLGWEKGAYKKWGKSKKKCSDLTLEEMKKQAAVQCLRSASDESSGIETLVEELCSRLKDLQSKQEEKIHKKLEGSPSPEAELSPPAKDQVEMYYEAFPPLSEKPVCLQEIMTVWNKSKVCSYSSSSSSSTAPPASTDTSSPKDCNSESEVTKERSSEVPTTVHEKTQSKSKNEKENKFSNGTIEEKPALYKKQIRHKPEGKIRPRSWSSGSSEAGSSSSGNQGELKASMKYVKVRHKAREIRNKKGRNGQSRLSLKHGEKAERNIHTGSSSSSSSGSVKQLCKRGKRPLKEIGRKDPGSTEGKDLYMENRKDTEYKEEPLWYTEPIAEYFVPLSRKSKLETTYRNRQDTSDLTSEAVEELSESVHGLCISNNNLHKTYLAAGTFIDGHFVEMPAVINEDIDLTGTSLCSLPEDNKYLDDIHLSELTHFYEVDIDQSMLDPGASETMQGESRILNMIRQKSKENTDFEAECCIVLDGMELQGERAIWTDSTSSVGAEGLFLQDLGNLAQFWECCSSSSGDADGESFGGDSPVRLSPILDSTVLNSHLLAGNQELFSDINEGSGINSCFSVFEVQCSNSVLPFSFETLNLGNENTDSSANMLGKTQSRLLIWTKNSAFEENEHCSNLSTRTCSPWSHSEETRSDNETLNIQFEESTQFNAEDINYVVPRVSSNYVDEELLDFLQDETCQQNSRTLGEIPTLVFKKTSKLESVCGIQLEQKTENKNFETTQVCNESPHGDGYSSGVIKDIWTKMADTNSVATVEIERTDAELFSADVNNYCCCLDAEAELETLQEPDKAVRRSEYHLWEGQKESLEKRAFASSELSNVDGGDYTTPSKPWDVAQDKENTFILGGVYGELKTFNSDGEWAVVPPSHTKGSLLQCAASDVVTIAGTDVFMTPGNSFAPGHRQLWKPFVSFEQNDQPKSGENGLNKGFSFIFHEDLLGACGNFQVEDPGLEYSFSSFDLSNPFSQVLHVECSFEPEGIASFSPSFKPKSILCSDSDSEVFHPRICGVDRTQYRAIRISPRTHFRPISASELSPGGGSESEFESEKDEANIPIPSQVDIFEDPQADLKPLEEDAEKEGHYYGKSELESGKFLPRLKKSGMEKSAQTSLDSQEESTGILSVGKQNQCLECSMNESLEIDLESSEANCKIMAQCEEEINNFCGCKAGCQFPAYEDNPVSSGQLEEFPVLNTDIQGMNRSQEKQTWWEKALYSPLFPASECEECYTNAKGESGLEEYPDAKETPSNEERLLDFNRVSSVYEARCTGERDSGAKSDGFRGKMCSSASSTSEETGSEGGGEWVGPSEEELFSRTHL |
| binds | Nuclear pore-associated protein 1 (protein, UniProt Q9NZP6 1-1156) MGNLLSKFRPGCRRRPLPGPGRGAPAPLSRDASPPGRAHSVPTPRPFRGLFRRNARRRPSAASIFVAPKRPCPLPRAAAAPLGVLPAVGWGLAIRKTPMLPARNPPRFGHPSSVRIPPPSRMFTLLLPSPREPAVKARKPIPATLLEETEVWAQEGPRRVKKDEDPVQIEGEDDEKRTPLSSGEASSTSRSQGTQGDVASFRCSPGPLEGNVYHKFSENSMSEKAQASPASSCLEGPAMPSTHSQAGCARHLGKPDPDATAPPEPAVGCSLLQQKLAAEVLNEEPPPSSLGLPIPLMSGKRMPDEKPFCIPPRSAAPPRAARNRPCKRKMSIPLLLPLPPSLPLLWDRGELPPPAKLPCLSVEGDLHTLEKSPEYKRNSRILEDKTETMTNSSITQPAPSFSQPVQTTDSLPLTTYTSQVSAPLPIPDLADLATGPLILPIPPLSTTPKMDEKIAFTIPNSPLALPADLVPILGDQSNEKGGSYNSVVGAAPLTSDPPTPPSSTPSFKPPVTRESPISMCVDSPPPLSFLTLLPVPSTGTSVITSKPMNSTSVISTVTTNASAHLTSQTAVDPEVVNMDTTAPSQVVIFTSSLSSRVSSLPNSQIHCSAEQRHPGKTSVYTSPLPFIFHNTTPSFNQLFGKEATPQPKFEAPDGQPQKASLPSACVFLSLPIIPPPDTSTLVNSASTASSSKPPIETNAMHTTPPSKAVILQSASVSKKYLPFYLGLPGSGNTQPSGNTASVQGSTSLPAQSVRAPATASNHPLNPGATPQPKFGAPDGPQQKTSLPSAHDFLSLPIMVPPDTSTLVSSASAASLSKPAIDTSDMNTTPPSKTVILQSTFVSRKEEYIRFYMGLPGSGNTLHSDSIASAQVSTSFPAQADRRPTTTSSHPLNTGSISHSTLGATDGQQKSDSSFILGNPATPAPVIGLTSPSVQPLSGSIIPPGFAELTSPYTALGTPVNAEPVEGHNASAFPNGTAKTSGFRIATGMPGTGDSTLLVGNTIPGPQVIMGPGTPMDGGSIGFSMSAPGPSSTSGELNIGQGQSGTPSTTSVFPFGQAAWDPTGHSMAAAPQGASNIPVFGYTSAAAYIPGLDPPTQNSCSGMGGDGTRSIVGGPCVPAFQQCILQHTWTERKFYTSSTHYYGQETYVRRHVCFQLP |
| binds | Phospholipid-transporting ATPase VB (protein, UniProt O94823 1-1461) MALSVDSSWHRWQWRVRDGFPHCPSETTPLLSPEKGRQSYNLTQQRVVFPNNSIFHQDWEEVSRRYPGNRTCTTKYTLFTFLPRNLFEQFHRWANLYFLFLVILNWMPSMEVFHREITMLPLAIVLFVIMIKDGMEDFKRHRFDKAINCSNIRIYERKEQTYVQKCWKDVRVGDFIQMKCNEIVPADILLLFSSDPNGICHLETASLDGETNLKQRCVVKGFSQQEVQFEPELFHNTIVCEKPNNHLNKFKGYMEHPDQTRTGFGCESLLLRGCTIRNTEMAVGIVIYAGHETKAMLNNSGPRYKRSKIERRMNIDIFFCIGILILMCLIGAVGHSIWNGTFEEHPPFDVPDANGSFLPSALGGFYMFLTMIILLQVLIPISLYVSIELVKLGQVFFLSNDLDLYDEETDLSIQCRALNIAEDLGQIQYIFSDKTGTLTENKMVFRRCTIMGSEYSHQENAKRLETPKELDSDGEEWTQYQCLSFSARWAQDPATMRSQKGAQPLRRSQSARVPIQGHYRQRSMGHRESSQPPVAFSSSIEKDVTPDKNLLTKVRDAALWLETLSDSRPAKASLSTTSSIADFFLALTICNSVMVSTTTEPRQRVTIKPSSKALGTSLEKIQQLFQKLKLLSLSQSFSSTAPSDTDLGESLGANVATTDSDERDDASVCSGGDSTDDGGYRSSMWDQGDILESGSGTSLEEALEAPATDLARPEFCYEAESPDEAALVHAAHAYSFTLVSRTPEQVTVRLPQGTCLTFSLLCTLGFDSVRKRMSVVVRHPLTGEIVVYTKGADSVIMDLLEDPACVPDINMEKKLRKIRARTQKHLDLYARDGLRTLCIAKKVVSEEDFRRWASFRREAEASLDNRDELLMETAQHLENQLTLLGATGIEDRLQEGVPDTIATLREAGIQLWVLTGDKQETAVNIAHSCRLLNQTDTVYTINTENQETCESILNCALEELKQFRELQKPDRKLFGFRLPSKTPSITSEAVVPEAGLVIDGKTLNAIFQGKLEKKFLELTQYCRSVLCCRSTPLQKSMIVKLVRDKLRVMTLSIGDGANDVSMIQAADIGIGISGQEGMQAVMSSDFAITRFKHLKKLLLVHGHWCYSRLARMVVYYLYKNVCYVNLLFWYQFFCGFSSSTMIDYWQMIFFNLFFTSLPPLVFGVLDKDISAETLLALPELYKSGQNSECYNLSTFWISMVDAFYQSLICFFIPYLAYKGSDIDVFTFGTPINTISLTTILLHQAMEMKTWTIFHGVVLLGSFLMYFLVSLLYNATCVICNSPTNPYWVMEGQLSNPTFYLVCFLTPVVALLPRYFFLSLQGTCGKSLISKAQKIDKLPPDKRNLEIQSWRSRQRPAPVPEVARPTHHPVSSITGQDFSASTPKSSNPPKRKHVEESVLHEQRCGTECMRDDSCSGDSSAQLSSGEHLLGPNRIMAYSRGQTDMCRCSKRSSHRRSQSSLTI |

No constants are given. Whether binding was seen depends on the method and setting. In cells and extracts the contact can be indirect. These calls come from enrichment with a bait or labelling near it, and not all partners need be listed.
